# Test results from the supplement of paper PMC6411743.
# Chains of the proteins cited; added tags and fusions are not shown. Lines headed by an entry give the natural chain unless they say otherwise; changes in a name come on top.
# UniProt O75717: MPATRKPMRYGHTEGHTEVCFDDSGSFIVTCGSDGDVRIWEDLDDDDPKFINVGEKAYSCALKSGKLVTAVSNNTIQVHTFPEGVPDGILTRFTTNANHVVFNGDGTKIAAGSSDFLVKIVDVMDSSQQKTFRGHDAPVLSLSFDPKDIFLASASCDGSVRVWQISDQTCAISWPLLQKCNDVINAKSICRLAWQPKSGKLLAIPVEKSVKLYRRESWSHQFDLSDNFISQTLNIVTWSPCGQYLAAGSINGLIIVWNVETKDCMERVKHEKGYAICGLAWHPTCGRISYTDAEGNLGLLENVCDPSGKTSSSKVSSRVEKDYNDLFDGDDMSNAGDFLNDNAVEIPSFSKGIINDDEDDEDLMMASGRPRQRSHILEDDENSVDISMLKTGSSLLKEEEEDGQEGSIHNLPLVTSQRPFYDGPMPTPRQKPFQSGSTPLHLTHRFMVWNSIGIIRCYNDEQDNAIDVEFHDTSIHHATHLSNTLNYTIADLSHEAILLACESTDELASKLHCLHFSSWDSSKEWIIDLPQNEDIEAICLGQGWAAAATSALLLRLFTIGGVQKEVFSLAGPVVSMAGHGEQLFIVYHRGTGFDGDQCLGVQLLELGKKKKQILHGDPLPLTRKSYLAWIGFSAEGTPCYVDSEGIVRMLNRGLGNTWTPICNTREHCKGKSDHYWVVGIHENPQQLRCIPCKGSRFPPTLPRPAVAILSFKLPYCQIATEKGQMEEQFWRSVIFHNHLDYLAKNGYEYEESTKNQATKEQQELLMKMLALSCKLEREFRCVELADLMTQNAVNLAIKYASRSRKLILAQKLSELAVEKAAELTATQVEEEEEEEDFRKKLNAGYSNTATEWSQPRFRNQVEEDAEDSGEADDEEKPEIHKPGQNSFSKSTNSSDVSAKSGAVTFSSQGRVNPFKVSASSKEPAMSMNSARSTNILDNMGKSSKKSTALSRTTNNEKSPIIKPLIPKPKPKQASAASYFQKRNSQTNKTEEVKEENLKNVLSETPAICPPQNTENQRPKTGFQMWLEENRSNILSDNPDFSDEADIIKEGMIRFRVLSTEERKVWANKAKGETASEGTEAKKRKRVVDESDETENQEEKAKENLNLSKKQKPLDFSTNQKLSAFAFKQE
# UniProt O60524: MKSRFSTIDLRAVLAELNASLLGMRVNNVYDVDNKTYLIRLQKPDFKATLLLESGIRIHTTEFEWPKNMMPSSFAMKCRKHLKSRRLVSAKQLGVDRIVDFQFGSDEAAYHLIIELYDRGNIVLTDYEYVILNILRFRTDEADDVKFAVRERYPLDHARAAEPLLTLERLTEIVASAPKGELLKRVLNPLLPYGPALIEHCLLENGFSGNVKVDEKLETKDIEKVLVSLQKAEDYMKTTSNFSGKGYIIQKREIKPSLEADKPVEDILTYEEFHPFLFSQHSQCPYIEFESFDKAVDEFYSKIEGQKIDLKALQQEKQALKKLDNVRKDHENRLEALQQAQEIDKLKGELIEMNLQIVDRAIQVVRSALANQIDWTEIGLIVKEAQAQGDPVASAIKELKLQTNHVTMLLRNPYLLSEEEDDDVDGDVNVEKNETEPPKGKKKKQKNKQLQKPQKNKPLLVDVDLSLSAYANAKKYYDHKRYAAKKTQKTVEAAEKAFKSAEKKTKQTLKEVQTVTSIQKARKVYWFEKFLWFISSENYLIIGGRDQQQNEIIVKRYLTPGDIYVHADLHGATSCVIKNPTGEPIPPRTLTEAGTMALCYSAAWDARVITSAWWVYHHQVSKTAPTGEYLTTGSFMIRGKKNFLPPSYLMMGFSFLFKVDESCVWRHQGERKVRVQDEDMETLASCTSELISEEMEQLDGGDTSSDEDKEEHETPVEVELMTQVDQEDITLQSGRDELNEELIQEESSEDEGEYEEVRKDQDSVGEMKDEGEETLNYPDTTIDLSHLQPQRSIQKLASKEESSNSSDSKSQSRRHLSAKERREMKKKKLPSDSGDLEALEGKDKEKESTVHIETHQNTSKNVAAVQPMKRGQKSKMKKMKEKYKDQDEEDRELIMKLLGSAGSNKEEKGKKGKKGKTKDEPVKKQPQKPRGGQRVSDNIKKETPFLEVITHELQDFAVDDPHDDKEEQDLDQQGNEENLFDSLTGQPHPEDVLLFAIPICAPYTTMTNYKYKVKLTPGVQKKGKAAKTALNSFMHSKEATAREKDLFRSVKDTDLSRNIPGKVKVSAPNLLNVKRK
# UniProt O75157: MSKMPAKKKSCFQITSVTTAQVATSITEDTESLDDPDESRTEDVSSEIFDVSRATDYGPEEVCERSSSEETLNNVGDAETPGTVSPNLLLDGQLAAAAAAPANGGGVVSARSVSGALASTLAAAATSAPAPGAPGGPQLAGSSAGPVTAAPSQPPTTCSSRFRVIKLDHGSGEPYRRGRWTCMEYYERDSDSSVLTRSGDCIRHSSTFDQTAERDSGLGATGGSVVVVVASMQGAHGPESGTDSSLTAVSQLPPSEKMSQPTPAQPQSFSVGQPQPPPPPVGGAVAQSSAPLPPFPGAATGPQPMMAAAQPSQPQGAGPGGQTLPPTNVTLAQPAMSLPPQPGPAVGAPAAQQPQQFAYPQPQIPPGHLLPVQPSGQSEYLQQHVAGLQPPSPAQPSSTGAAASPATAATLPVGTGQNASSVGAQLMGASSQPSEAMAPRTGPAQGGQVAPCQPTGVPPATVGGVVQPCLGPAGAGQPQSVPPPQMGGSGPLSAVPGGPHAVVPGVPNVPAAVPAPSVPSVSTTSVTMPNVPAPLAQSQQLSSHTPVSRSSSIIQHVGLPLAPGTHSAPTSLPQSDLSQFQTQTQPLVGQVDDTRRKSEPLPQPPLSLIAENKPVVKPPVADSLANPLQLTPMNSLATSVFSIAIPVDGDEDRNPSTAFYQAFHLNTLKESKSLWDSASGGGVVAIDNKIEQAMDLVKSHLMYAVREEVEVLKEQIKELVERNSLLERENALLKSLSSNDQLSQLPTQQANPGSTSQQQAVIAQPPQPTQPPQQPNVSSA
# UniProt O75155: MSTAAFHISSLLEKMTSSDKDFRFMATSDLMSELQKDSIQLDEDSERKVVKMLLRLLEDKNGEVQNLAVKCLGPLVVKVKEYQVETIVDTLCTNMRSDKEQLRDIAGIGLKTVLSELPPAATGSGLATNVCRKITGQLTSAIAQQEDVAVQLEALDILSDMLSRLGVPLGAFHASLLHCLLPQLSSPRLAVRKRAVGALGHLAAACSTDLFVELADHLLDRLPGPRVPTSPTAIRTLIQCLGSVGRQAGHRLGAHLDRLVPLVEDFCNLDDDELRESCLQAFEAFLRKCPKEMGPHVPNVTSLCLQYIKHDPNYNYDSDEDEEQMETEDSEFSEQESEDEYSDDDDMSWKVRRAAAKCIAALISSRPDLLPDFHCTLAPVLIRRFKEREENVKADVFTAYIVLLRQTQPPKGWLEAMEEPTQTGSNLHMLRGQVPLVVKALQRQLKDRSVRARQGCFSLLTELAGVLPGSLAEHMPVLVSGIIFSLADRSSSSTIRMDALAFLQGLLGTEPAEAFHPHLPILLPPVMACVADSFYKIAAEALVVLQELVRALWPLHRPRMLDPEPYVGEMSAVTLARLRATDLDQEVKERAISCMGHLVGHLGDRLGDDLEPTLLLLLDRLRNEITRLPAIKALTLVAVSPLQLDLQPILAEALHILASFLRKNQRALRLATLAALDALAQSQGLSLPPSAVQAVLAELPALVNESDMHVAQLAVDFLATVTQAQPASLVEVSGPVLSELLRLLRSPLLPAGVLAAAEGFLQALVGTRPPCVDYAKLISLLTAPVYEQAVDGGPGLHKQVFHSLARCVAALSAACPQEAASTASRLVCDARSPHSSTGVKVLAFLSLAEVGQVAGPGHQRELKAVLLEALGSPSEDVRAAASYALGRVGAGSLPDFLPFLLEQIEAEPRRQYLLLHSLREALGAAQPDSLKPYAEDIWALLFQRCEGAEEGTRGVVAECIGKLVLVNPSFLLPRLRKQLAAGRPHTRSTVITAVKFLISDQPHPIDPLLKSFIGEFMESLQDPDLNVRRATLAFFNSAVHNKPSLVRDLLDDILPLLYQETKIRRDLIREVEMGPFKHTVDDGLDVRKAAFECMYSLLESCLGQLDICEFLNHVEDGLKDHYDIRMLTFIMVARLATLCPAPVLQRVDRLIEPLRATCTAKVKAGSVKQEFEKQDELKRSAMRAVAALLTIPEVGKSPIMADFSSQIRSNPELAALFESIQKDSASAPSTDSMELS
# UniProt O95081: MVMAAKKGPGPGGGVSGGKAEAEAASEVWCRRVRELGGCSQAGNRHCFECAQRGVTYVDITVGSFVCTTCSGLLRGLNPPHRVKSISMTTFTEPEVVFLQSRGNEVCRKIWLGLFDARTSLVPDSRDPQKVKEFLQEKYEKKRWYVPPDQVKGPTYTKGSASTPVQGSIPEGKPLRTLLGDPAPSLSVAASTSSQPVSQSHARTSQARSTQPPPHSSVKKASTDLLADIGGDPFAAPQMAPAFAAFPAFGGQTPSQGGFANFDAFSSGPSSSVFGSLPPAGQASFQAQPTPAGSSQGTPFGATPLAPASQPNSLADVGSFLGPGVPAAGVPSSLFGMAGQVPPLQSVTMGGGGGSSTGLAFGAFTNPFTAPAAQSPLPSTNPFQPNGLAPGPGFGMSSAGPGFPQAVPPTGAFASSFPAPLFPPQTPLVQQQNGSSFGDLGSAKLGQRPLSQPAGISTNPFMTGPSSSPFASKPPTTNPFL
# UniProt O95365: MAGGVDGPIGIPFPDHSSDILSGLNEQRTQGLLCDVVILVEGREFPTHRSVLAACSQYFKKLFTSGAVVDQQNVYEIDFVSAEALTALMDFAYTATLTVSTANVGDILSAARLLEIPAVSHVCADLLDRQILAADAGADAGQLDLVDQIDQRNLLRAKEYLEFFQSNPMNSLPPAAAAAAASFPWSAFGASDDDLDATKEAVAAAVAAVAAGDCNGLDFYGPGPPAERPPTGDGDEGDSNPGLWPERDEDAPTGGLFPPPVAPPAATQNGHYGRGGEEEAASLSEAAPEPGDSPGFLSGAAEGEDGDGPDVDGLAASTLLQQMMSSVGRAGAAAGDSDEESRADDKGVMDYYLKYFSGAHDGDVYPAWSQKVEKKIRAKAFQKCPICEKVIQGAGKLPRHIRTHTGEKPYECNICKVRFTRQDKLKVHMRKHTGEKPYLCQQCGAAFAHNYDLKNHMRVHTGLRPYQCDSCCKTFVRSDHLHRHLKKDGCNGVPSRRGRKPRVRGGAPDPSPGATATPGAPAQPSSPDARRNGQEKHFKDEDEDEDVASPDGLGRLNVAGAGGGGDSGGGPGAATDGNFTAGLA
# UniProt O95347, whole entry: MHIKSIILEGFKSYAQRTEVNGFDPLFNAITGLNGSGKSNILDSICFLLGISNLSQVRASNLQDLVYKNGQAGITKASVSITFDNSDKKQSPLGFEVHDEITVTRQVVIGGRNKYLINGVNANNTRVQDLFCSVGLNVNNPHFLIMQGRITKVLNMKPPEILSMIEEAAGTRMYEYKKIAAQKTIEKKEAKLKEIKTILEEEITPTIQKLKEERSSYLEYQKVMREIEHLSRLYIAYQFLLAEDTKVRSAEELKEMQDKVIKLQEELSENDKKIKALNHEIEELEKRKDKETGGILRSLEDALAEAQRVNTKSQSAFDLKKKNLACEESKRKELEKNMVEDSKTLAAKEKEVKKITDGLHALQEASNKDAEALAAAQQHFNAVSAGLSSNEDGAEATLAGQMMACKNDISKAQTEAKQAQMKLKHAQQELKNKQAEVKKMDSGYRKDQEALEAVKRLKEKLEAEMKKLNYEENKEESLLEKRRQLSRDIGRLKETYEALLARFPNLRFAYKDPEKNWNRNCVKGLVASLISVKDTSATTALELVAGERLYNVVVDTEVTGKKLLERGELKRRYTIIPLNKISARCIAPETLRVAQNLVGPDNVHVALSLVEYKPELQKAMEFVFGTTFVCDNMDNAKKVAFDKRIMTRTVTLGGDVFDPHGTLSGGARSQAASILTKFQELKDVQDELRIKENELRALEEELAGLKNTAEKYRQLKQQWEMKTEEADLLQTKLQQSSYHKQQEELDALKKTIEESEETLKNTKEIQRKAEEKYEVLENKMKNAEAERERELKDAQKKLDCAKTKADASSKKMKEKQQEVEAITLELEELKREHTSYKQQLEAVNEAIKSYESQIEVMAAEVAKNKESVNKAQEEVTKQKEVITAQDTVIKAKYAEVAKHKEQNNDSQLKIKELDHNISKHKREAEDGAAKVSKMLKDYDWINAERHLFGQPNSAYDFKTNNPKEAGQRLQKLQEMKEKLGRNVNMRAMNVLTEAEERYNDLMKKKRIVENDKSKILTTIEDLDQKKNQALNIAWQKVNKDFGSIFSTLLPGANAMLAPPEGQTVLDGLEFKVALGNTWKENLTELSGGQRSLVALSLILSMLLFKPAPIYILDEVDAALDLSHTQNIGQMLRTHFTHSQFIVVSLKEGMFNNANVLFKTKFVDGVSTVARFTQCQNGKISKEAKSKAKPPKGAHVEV
# ± gives the standard deviation of the averaged measurements. The entries are a selection whose mix differs from that of the whole data set.
# Compound: Nc1ncnc2c1ncn2[C@@H]1O[C@H](COP(=O)(O)OP(=O)(O)OP(=O)(O)O)[C@@H](O)[C@H]1O [adenosine triphosphate]
# Assay: NP40-soluble protein abundance relative to vehicle (solubility fold change) (ratio); higher = more soluble protein in presence of ATP
# Method in brief: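 Values are fold changes against the detergent-processed vehicle, based on vsn-normalised intensities. Jurkat crude lysate was treated at eight concentrations from 0.1 to 10 mM (10 min at room temperature, then 3 min at 37 °C), solubilised with 0.8% NP40 and benzonase, ultracentrifuged and analysed by TMT-labelled LC-MS/MS over three independent experiments.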
Target,NP40-soluble protein abundance (concentration: 1mM),NP40-soluble protein abundance (concentration: 2mM),NP40-soluble protein abundance (concentration: 4mM),NP40-soluble protein abundance (concentration: 6mM),NP40-soluble protein abundance (concentration: 8mM),NP40-soluble protein abundance (concentration: 10mM)
SF3B1 (UniProt O75533),1.14 ± 0.024,1.11 ± 0.013,1.13 ± 0.012,1.17 ± 0.049,1.2 ± 0.031,1.19 ± 0.043
UniProt O95273 and related entries,1.03 ± 0.023,1.07 ± 0.028,0.961 ± 0.038,0.909 ± 0.03,0.96 ± 0.14,1.01 ± 0.043
UniProt O75319 and related entries,1.16 ± 0.013,1.16 ± 0.0082,1.4 ± 0.19,1.39 ± 0.039,1.48 ± 0.17,1.55 ± 0.11
WDHD1 (UniProt O75717),0.957 ± 0.03,0.954 ± 0.023,0.921 ± 0.01,0.959 ± 0.034,0.932 ± 0.013,0.926 ± 0.023
UniProt O75381 and related entries,0.922 ± 0.046,0.87 ± 0.03,0.853 ± 0.03,0.821 ± 0.053,0.84 ± 0.012,0.757 ± 0.066
ATP6V1G1 (UniProt O75348),0.889 ± 0.08,0.889 ± 0.094,0.886 ± 0.08,0.983 ± 0.15,0.861 ± 0.04,0.787 ± 0.13
CLPX (UniProt O76031),0.997 ± 0.032,0.999 ± 0.018,0.974 ± 0.033,1.02 ± 0.026,0.975 ± 0.041,1.01 ± 0.023
UniProt O60524 and related entries,0.943 ± 0.027,0.969 ± 0.032,1.03 ± 0.026,1.09 ± 0.066,1.11 ± 0.064,1.18 ± 0.036
UniProt O94768,1.15 ± 0.045,1.14 ± 0.052,1.14 ± 0.084,1.19 ± 0.053,1.15 ± 0.042,1.12 ± 0.048
UniProt O75157 and related entries,0.889 ± 0.11,0.915 ± 0.031,0.914 ± 0.057,0.925 ± 0.078,0.851 ± 0.058,0.87 ± 0.046
UniProt O94964-2,1.09 ± 0.067,1.04 ± 0.068,0.99 ± 0.055,1.06 ± 0.17,1.07 ± 0.04,1.07 ± 0.041
UniProt O75155 and related entries,0.973 ± 0.056,0.934 ± 0.042,0.925 ± 0.028,0.895 ± 0.014,0.914 ± 0.04,0.939 ± 0.034
UniProt O75925 and related entries,0.835 ± 0.057,0.941 ± 0.16,0.967 ± 0.092,0.838 ± 0.03,0.894 ± 0.062,1.14 ± 0.085
AGFG2 (UniProt O95081),0.979 ± 0.18,0.945 ± 0.063,0.902 ± 0.075,0.921 ± 0.084,0.953 ± 0.051,0.926 ± 0.1
ZBTB7A (UniProt O95365),1.03 ± 0.042,1.09 ± 0.012,1.11 ± 0.15,1.1 ± 0.14,1.03 ± 0.17,1.07 ± 0.18
UniProt O75592 and related entries,1.02 ± 0.094,0.971 ± 0.053,1.07 ± 0.17,1.07 ± 0.19,1.05 ± 0.19,1.04 ± 0.13
ROCK2 (UniProt O75116),0.958 ± 0.046,0.97 ± 0.025,0.96 ± 0.04,0.981 ± 0.026,0.959 ± 0.018,0.961 ± 0.022
UniProt O75208 and related entries,0.876 ± 0.062,0.88 ± 0.029,0.859 ± 0.061,0.881 ± 0.045,0.838 ± 0.022,0.813 ± 0.13
CBR3 (UniProt O75828),1.01 ± 0.028,1.05 ± 0.07,1.05 ± 0.047,1.06 ± 0.064,1 ± 0.053,0.982 ± 0.051
AP1G2 (UniProt O75843),1.03 ± 0.057,0.972 ± 0.058,0.998 ± 0.031,0.965 ± 0.057,1.02 ± 0.045,0.976 ± 0.026
UniProt O75808 and related entries,0.882 ± 0.068,0.945 ± 0.082,0.974 ± 0.1,0.949 ± 0.13,0.893 ± 0.12,0.913 ± 0.089
SMC2 (UniProt O95347),0.99 ± 0.018,0.978 ± 0.012,0.961 ± 0.016,1.01 ± 0.05,0.98 ± 0.03,0.972 ± 0.032
UniProt O60443 and related entries,0.955 ± 0.062,0.955 ± 0.086,0.963 ± 0.096,0.951 ± 0.13,0.961 ± 0.088,1.03 ± 0.03
WDR1 (UniProt O75083),0.999 ± 0.051,0.947 ± 0.067,0.925 ± 0.05,0.923 ± 0.088,0.942 ± 0.052,0.912 ± 0.046
PHF2 (UniProt O75151),1.02 ± 0.1,1.02 ± 0.11,1.04 ± 0.12,1.06 ± 0.16,1.06 ± 0.13,1.06 ± 0.17
POLR1A (UniProt O95602),1.1 ± 0.043,1.12 ± 0.016,1.18 ± 0.028,1.17 ± 0.022,1.25 ± 0.014,1.25 ± 0.041
SRP72 (UniProt O76094),1 ± 0.013,0.993 ± 0.044,0.979 ± 0.035,1.04 ± 0.038,1.06 ± 0.05,1.05 ± 0.04
KBTBD11 (UniProt O94819),1.01 ± 0.024,0.938 ± 0.021,1.01 ± 0.03,0.978 ± 0.07,0.966 ± 0.027,0.969 ± 0.039
ZBED4 (UniProt O75132),1.05 ± 0.062,1.02 ± 0.074,1.02 ± 0.032,1.02 ± 0.033,1.01 ± 0.046,1 ± 0.04
HIP1R (UniProt O75146),1.03 ± 0.042,1.07 ± 0.019,1.14 ± 0.029,1.19 ± 0.043,1.17 ± 0.037,1.22 ± 0.039
